Results from patent publication US20260124184A1, “ONCE DAILY ALDOSTERONE SYNTHASE INHIBITOR (R)-(+)-5-(P-CYANOPHENYL)-5,6,7,8-TETRAHYDROIMIDAZO[L,5-A]PYRIDINE” (priority 2022, published 2026).
Where “and” joins values, the source holds several entries; their conditions need not be identical. Equal entries are not always repeated. Where two headings read alike, the source gives them in different places. The source gives many values for each of these; only a part stands here.

Test system: patients with primary aldosteronism
Details: 4 mg, patients 1,5,8,14,18,21,22,25,28,30 in row order
Experimental: A double-blind, randomized, Phase 2 trial was conducted between November 2019 and June 2022 at 11 centres in Italy, Switzerland and the Netherlands (NCT04007406). […] Patients requiring fixed-dose antihypertensive therapy continued treatment throughout the study; steroid therapies, β-adrenergic and renin-angiotensin-aldosterone system blockers were not permitted. At 14-day intervals, office blood pressures were recorded and blood samples were taken for measurement of steroid and peptide hormones and electrolytes at a central laboratory.
Plasma aldosterone and plasma renin concentration were measured centrally under GCP regulations using the Liaison® chemiluminescent immunoassay kit supplied by DiaSorin S.p.A. Italy. The system used specific monoclonal antibodies to prevent cross reactions with other major potential reactants in the serum samples. The monoclonal antibodies directed against specific epitopes of the renin molecule allowed accurate and sensitive quantification. The assays were performed according to the instructions provided by the manufacturer. […] The analytical sensitivity was <0.97 ng/ml. […] The analytical sensitivity was <0.53 IU/mL.
For all efficacy endpoints, changes from baseline were calculated from linear models and accompanied by 95% confidence intervals and p values. Log-transformed values were used for changes in ARR. The full analysis set (FAS) and safety set were defined as all randomized patients who received at least one dose of study drug.

## (R)-(+)-5-(p-cyanophenyl)-5,6,7,8-tetrahydroimidazolium[1,5-a]pyridine dihydrogen phosphate [dexfadrostat phosphate]
Day 1 (baseline)
  ARR, individual patient values: 18.0 (ng/dL)/(mU/L) and 24.8 (ng/dL)/(mU/L)
Day 14
  ARR, individual patient values: 0.7 (ng/dL)/(mU/L)
Day 28
  ARR, individual patient values: 3.1 (ng/dL)/(mU/L) and 1.1 (ng/dL)/(mU/L)
Day 42
  ARR, individual patient values: 3.8 (ng/dL)/(mU/L) and 1.7 (ng/dL)/(mU/L)
